Results on 1 molecule are retold here after publication PMC9974993.

These are yes or no findings as the source states them, for the method shown. Binding seen in cells or lysates may run through a third protein. Some results given as binding are weak or reduced against the parent protein; the word gives no strength.

This assay deals with HER2, tyrosine-autophosphorylated in BS4-induced aggregates (human (endogenous in SkBr3)) (UniProt P04626). Put plainly: co-IP; SkBr3 cells, serum-free 1 h ± lapatinib (HER1/2i) or LY294002 (PI3Ki); BS4 3 ug/ml for 2.5 min; lysis in PBS, 1% NP-40 with protease and phosphatase inhibitors, lysate not clarified; BS4-HER2 aggregates captured on Protein G Dynabeads 2 h at 4 °C, five washes; western blot. In general terms: Immunoblotting shows a protein as a band on a membrane.

B1: VAV2 (protein, UniProt P52735 1-878)
chain: MEQWRQCGRWLIDCKVLPPNHRVVWPSAVVFDLAQALRDGVLLCQLLHNLSPGSIDLKDINFRPQMSQFLCLKNIRTFLKVCHDKFGLRNSELFDPFDLFDVRDFGKVISAVSRLSLHSIAQNKGIRPFPSEETTENDDDVYRSLEELADEHDLGEDIYDCVPCEDGGDDIYEDIIKVEVQQPMIRYMQKMGMTEDDKRNCCLLEIQETEAKYYRTLEDIEKNYMSPLRLVLSPADMAAVFINLEDLIKVHHSFLRAIDVSVMVGGSTLAKVFLDFKERLLIYGEYCSHMEHAQNTLNQLLASREDFRQKVEECTLKVQDGKFKLQDLLVVPMQRVLKYHLLLKELLSHSAERPERQQLKEALEAMQDLAMYINEVKRDKETLRKISEFQSSIENLQVKLEEFGRPKIDGELKVRSIVNHTKQDRYLFLFDKVVIVCKRKGYSYELKEIIELLFHKMTDDPMNNKDVKKSHGKMWSYGFYLIHLQGKQGFQFFCKTEDMKRKWMEQFEMAMSNIKPDKANANHHSFQMYTFDKTTNCKACKMFLRGTFYQGYMCTKCGVGAHKECLEVIPPCKFTSPADLDASGAGPGPKMVAMQNYHGNPAPPGKPVLTFQTGDVLELLRGDPESPWWEGRLVQTRKSGYFPSSSVKPCPVDGRPPISRPPSREIDYTAYPWFAGNMERQQTDNLLKSHASGTYLIRERPAEAERFAISIKFNDEVKHIKVVEKDNWIHITEAKKFDSLLELVEYYQCHSLKESFKQLDTTLKYPYKSRERSASRASSRSPASCASYNFSFLSPQGLSFASQGPSAPFWSVFTPRVIGTAVARYNFAARDMRELSLREGDVVRIYSRIGGDQGWWKGETNGRIGWFPSTYVEEEGIQ
Turning to B1, the binding entry is recorded as “binds”.
